{"source": "patent US7897598B2", "about": "“Inhibitors of the anandamide transporter” (priority 1998, dated 2011)", "test_system": "anandamide transporter", "test": "[3H]anandamide accumulation in cortical astrocytes in culture", "assay_type": "cell-based, rat", "details": "WIN-55212-2 1 μM, SR-141716-A 10 μM", "note": "For at least one compound, name, drawing or mass did not settle the structure."}
{"smiles": "CCCCC/C=C\\C/C=C\\C/C=C\\C/C=C\\CCCC(=O)O", "note": "[arachidonate]", "values": [{"measurement": "effect on [3H]anandamide accumulation (in words)", "value": "not"}]}
